According to patent US20020151599A1, “FORMULATIONS HAVING AN ANTIVIRAL ACTION” (priority 1999, published 2002):
Several values for one entry are separate records, joined by “and”; a condition that tells them apart may be missing. Equal values may be shown once. At least one structure is not confirmed: it was looked up by name or label, or the drawing left a doubt.

Assay: UV light absorption
Format: physicochemical
Details: pure form

SMILES: O=c1c(O[C@@H]2O[C@H](CO)[C@@H](O)[C@H](O)[C@H]2O)c(-c2ccc(O)c(O)c2)oc2cc(O)cc(O)c12 [isoquercitrin]
- maximum UV light absorption: 257 nm and 359 nm
